No constants are given. Whether binding was seen depends on the method and setting. In cells and extracts the contact can be indirect. Some entries that bind do so weakly or less than the wild type.

Amino acid sequences for entries named in this document (tags omitted). Residues count along the entry.
UniProt O14672, residues 20-748: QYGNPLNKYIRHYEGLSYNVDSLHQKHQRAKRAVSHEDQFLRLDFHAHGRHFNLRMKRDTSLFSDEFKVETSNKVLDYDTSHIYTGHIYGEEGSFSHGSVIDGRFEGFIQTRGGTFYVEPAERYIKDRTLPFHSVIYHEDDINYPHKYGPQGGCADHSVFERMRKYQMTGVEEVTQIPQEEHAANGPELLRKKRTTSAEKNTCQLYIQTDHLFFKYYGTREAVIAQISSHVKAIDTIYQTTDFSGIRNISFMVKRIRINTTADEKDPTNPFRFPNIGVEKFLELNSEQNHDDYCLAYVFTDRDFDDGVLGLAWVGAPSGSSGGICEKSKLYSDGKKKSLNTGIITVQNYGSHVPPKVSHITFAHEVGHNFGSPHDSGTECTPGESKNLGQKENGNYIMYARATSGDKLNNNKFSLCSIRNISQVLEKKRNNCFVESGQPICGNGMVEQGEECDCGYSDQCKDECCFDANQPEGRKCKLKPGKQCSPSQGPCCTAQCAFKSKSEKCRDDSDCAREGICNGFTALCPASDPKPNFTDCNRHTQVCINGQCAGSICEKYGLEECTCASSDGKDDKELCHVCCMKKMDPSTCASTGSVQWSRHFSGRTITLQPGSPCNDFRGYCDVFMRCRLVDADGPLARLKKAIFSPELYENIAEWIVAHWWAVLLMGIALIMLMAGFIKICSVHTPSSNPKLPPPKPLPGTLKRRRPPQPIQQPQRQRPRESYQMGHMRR
UniProt Q86TM6: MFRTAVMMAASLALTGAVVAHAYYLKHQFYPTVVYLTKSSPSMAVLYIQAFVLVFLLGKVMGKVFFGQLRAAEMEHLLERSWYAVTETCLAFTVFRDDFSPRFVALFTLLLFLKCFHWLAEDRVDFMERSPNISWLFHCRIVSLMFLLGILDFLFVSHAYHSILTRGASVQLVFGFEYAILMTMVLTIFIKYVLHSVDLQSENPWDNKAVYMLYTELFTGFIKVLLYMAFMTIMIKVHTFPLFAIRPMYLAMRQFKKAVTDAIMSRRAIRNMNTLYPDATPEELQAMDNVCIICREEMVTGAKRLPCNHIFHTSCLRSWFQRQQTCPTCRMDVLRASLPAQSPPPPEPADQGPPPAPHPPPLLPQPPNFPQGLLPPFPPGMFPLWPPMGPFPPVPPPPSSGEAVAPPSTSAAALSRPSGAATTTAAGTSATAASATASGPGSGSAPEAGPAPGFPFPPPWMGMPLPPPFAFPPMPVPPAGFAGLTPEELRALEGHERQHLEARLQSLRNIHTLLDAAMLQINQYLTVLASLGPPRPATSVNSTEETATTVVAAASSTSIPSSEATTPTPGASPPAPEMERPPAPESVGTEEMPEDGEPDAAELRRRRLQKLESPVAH

Experimental findings from publication PMC10348774 are described below.

This assay addresses unglycosylated precursor ADAM10 (unglycosylated preADAM10), endogenous (human (endogenous in SK-BR-3)) (UniProt O14672). Put plainly: co-IP; co-IP of endogenous HRD1 and ADAM10 in SK-BR-3-shDPAGT1#1 cells treated with MG132.

As to “synoviolin 1 (SYVN1, also known as HRD1) (from UniProt Q86TM6 1-617) (enzyme)”, the binding entry was “binds”.
